Assay results taken from PMC7969980.
These are yes or no findings as the source states them, for the method shown. In cells and extracts the contact can be indirect. Some binding calls cover weakened binding; strength is not graded here.

Chains of the proteins cited; added tags and fusions are not shown.
UniProt Q96PU5: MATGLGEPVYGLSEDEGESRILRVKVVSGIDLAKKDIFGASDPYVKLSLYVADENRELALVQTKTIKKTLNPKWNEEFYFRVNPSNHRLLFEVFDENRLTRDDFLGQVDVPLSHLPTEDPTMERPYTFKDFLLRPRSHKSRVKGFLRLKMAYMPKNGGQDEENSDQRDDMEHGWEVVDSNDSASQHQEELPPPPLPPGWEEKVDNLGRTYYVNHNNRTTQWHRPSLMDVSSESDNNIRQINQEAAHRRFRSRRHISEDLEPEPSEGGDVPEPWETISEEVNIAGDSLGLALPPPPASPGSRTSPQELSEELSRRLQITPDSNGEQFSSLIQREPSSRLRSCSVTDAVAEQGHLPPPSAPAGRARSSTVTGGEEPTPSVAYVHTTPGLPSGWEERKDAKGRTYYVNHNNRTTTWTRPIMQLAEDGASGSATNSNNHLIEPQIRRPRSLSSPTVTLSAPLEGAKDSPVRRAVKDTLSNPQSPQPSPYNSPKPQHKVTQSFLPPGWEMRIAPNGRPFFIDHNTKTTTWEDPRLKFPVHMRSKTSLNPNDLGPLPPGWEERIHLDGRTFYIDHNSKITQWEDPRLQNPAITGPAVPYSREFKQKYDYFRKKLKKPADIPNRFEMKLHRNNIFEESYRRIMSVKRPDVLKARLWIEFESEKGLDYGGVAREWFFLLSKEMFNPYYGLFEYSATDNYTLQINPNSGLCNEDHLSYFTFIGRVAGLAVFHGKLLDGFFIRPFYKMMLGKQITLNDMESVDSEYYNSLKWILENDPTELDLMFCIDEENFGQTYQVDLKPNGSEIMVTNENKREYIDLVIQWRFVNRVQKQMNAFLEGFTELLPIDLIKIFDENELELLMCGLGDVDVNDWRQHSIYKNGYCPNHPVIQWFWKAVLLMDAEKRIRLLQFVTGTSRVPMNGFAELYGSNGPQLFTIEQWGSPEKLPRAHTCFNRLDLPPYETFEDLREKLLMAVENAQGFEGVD
UniProt P01106: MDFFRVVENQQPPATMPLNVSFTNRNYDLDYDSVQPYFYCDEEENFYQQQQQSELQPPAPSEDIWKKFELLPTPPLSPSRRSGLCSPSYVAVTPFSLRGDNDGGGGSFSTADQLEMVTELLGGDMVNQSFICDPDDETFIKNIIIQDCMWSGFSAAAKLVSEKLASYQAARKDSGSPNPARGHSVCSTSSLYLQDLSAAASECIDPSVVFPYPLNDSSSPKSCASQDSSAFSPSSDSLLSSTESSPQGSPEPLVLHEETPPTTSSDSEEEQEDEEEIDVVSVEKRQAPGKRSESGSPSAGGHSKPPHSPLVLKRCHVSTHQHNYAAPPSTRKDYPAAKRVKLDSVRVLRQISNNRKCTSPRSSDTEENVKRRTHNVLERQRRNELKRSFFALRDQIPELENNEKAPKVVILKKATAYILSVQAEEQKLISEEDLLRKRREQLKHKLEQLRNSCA

Target: NEDD4L (human (endogenous in A549)) (UniProt Q96PU5)
Experiment: co-IP; fresh whole cell lysate of A549 cells in Tween-20 Co-IP buffer; immunoprecipitated with anti-NEDD4L, anti-c-Myc or control IgG and protein A/G-agarose beads overnight at 4°C; western blot

c-Myc (from UniProt P01106 1-454)
binding: binds
